The target in this assay is A/H1N1/Puerto Rico/8/34 virus NS1 protein fused to the Gal4 DNA-binding domain (influenza A virus A/H1N1/Puerto Rico/8/34) (UniProt P03496). The assay is described as follows: two-hybrid.

Protein sequences, listed by entry. Tags and fused reporters are not part of them.
UniProt P03496: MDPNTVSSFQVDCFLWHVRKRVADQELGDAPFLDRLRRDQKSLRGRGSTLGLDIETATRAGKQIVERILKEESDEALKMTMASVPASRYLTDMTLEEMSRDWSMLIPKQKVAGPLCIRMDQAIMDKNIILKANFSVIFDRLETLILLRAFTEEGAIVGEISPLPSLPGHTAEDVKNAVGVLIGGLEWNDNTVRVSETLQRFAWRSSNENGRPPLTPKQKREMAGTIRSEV

No constants are given. Whether binding was seen depends on the method and setting. Some binding calls cover weakened binding; strength is not graded here. Where a sequence is shown, tags or fusion partners need not be part of it.

B1: full-length ADAR1 fused to Gal4 activating domain (protein, UniProt P55265 1-1226)
chain: MNPRQGYSLSGYYTHPFQGYEHRQLRYQQPGPGSSPSSFLLKQIEFLKGQLPEAPVIGKQTPSLPPSLPGLRPRFPVLLASSTRGRQVDIRGVPRGVHLRSQGLQRGFQHPSPRGRSLPQRGVDCLSSHFQELSIYQDQEQRILKFLEELGEGKATTAHDLSGKLGTPKKEINRVLYSLAKKGKLQKEAGTPPLWKIAVSTQAWNQHSGVVRPDGHSQGAPNSDPSLEPEDRNSTSVSEDLLEPFIAVSAQAWNQHSGVVRPDSHSQGSPNSDPGLEPEDSNSTSALEDPLEFLDMAEIKEKICDYLFNVSDSSALNLAKNIGLTKARDINAVLIDMERQGDVYRQGTTPPIWHLTDKKRERMQIKRNTNSVPETAPAAIPETKRNAEFLTCNIPTSNASNNMVTTEKVENGQEPVIKLENRQEARPEPARLKPPVHYNGPSKAGYVDFENGQWATDDIPDDLNSIRAAPGEFRAIMEMPSFYSHGLPRCSPYKKLTECQLKNPISGLLEYAQFASQTCEFNMIEQSGPPHEPRFKFQVVINGREFPPAEAGSKKVAKQDAAMKAMTILLEEAKAKDSGKSEESSHYSTEKESEKTAESQTPTPSATSFFSGKSPVTTLLECMHKLGNSCEFRLLSKEGPAHEPKFQYCVAVGAQTFPSVSAPSKKVAKQMAAEEAMKALHGEATNSMASDNQPEGMISESLDNLESMMPNKVRKIGELVRYLNTNPVGGLLEYARSHGFAAEFKLVDQSGPPHEPKFVYQAKVGGRWFPAVCAHSKKQGKQEAADAALRVLIGENEKAERMGFTEVTPVTGASLRRTMLLLSRSPEAQPKTLPLTGSTFHDQIAMLSHRCFNTLTNSFQPSLLGRKILAAIIMKKDSEDMGVVVSLGTGNRCVKGDSLSLKGETVNDCHAEIISRRGFIRFLYSELMKYNSQTAKDSIFEPAKGGEKLQIKKTVSFHLYISTAPCGDGALFDKSCSDRAMESTESRHYPVFENPKQGKLRTKVENGEGTIPVESSDIVPTWDGIRLGERLRTMSCSDKILRWNVLGLQGALLTHFLQPIYLKSVTLGYLFSQGHLTRAICCRVTRDGSAFEDGLRHPFIVNHPKVGRVSIYDSKRQSGKTKETSVNWCLADGYDLEILDGTRGTVDGPRNELSRVSKKNIFLLFKKLCSFRYRRDLLRLSYGEAKKAARDYETAKNYFKKGLKDMGYGNWISKPQEEKNFYLCPV
Turning to B1, the binding entry was “binds”.

These data come from PMC3701712.
